Measured values taken from the supplement of paper PMC10849652.
This is one part of the list.

By UniProt entry, the sequences of proteins in these tests, tags left out. Where a name states a change or a piece, a line headed by the entry shows the natural chain unless it says otherwise.
UniProt Q5JSL3: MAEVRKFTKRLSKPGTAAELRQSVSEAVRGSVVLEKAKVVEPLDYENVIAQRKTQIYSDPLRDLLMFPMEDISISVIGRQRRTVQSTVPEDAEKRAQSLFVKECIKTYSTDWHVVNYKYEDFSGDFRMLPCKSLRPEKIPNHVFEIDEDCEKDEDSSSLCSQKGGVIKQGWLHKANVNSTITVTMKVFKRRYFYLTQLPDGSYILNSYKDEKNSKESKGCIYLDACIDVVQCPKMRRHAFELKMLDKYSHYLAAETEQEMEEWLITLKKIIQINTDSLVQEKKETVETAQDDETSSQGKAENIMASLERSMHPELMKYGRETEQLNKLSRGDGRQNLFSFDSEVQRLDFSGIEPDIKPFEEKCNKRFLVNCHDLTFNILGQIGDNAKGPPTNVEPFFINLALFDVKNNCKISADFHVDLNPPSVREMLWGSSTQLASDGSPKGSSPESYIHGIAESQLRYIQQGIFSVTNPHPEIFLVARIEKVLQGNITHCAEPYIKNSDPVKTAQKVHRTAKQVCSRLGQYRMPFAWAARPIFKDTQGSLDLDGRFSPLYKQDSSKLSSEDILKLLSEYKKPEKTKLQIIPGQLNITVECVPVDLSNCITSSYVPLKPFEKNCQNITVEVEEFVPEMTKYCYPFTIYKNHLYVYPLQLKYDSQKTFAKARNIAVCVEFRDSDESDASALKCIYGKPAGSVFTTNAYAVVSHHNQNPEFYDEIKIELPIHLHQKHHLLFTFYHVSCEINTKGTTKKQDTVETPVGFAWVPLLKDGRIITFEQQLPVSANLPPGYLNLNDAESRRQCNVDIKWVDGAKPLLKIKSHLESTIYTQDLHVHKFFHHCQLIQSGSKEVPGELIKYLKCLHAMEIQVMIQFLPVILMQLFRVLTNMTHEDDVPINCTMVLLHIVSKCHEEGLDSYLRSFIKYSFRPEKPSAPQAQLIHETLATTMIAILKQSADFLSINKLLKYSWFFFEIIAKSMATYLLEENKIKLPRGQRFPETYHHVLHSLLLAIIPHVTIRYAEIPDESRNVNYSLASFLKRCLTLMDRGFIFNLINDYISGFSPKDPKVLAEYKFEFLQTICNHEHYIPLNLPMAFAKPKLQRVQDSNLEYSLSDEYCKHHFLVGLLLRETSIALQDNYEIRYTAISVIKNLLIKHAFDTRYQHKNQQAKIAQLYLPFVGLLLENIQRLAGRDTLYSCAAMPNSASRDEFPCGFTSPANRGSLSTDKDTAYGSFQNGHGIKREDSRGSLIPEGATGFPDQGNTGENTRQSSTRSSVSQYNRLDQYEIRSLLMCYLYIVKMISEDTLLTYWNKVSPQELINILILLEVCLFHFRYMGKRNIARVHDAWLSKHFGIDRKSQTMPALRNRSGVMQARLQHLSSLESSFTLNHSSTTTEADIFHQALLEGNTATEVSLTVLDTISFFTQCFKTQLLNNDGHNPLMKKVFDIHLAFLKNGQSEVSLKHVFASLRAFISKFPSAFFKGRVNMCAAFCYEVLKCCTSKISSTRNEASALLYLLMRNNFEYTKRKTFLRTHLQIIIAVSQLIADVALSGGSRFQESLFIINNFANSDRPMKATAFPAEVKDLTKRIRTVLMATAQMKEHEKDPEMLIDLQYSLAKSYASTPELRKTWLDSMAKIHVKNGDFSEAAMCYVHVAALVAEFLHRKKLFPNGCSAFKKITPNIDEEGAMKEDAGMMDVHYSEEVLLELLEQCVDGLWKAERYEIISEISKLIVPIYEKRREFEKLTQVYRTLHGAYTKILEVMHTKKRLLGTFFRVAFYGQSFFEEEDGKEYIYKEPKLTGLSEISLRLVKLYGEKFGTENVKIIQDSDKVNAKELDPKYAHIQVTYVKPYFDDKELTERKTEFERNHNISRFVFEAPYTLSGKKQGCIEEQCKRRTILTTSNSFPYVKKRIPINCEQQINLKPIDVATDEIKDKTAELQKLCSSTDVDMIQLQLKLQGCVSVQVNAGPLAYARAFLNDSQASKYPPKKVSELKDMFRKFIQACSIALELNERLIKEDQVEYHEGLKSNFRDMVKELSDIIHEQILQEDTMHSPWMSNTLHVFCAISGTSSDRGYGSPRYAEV
UniProt O60869: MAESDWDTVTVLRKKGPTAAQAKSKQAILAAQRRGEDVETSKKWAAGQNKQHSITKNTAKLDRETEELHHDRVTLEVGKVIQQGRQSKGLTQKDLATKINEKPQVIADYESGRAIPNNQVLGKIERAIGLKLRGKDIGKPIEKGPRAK
UniProt Q9NVH1: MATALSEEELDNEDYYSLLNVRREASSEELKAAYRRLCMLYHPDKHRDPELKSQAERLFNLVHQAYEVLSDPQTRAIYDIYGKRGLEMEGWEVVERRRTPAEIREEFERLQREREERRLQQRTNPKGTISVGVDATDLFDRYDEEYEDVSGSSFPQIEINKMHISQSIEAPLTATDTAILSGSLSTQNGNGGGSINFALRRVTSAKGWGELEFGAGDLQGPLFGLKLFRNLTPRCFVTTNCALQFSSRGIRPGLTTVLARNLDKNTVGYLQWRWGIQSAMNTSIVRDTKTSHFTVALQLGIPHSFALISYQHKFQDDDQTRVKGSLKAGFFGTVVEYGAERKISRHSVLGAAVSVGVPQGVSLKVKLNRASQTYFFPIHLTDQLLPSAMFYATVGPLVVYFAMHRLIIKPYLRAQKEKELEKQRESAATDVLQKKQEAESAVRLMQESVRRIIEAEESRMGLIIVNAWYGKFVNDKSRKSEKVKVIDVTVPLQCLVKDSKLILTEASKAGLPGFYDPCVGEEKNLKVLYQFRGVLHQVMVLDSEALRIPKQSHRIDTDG
UniProt Q96EY1: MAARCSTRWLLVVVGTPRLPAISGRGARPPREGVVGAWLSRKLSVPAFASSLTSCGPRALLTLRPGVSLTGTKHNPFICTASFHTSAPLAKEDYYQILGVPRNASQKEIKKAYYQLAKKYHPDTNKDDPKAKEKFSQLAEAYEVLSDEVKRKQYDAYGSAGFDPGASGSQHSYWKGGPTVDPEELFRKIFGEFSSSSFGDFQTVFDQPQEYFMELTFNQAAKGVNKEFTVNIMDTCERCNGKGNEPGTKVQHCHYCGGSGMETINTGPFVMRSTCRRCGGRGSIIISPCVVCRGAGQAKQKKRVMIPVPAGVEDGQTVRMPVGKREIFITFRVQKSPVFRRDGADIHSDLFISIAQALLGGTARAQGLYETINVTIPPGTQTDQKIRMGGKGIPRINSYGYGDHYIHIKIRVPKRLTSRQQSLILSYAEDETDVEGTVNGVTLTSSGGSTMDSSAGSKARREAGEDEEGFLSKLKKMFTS
UniProt Q01658: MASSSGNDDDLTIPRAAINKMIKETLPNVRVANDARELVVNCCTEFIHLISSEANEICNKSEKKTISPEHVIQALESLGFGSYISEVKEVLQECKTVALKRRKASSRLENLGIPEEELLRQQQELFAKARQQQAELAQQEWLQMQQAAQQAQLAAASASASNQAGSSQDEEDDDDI
UniProt Q9UBS4: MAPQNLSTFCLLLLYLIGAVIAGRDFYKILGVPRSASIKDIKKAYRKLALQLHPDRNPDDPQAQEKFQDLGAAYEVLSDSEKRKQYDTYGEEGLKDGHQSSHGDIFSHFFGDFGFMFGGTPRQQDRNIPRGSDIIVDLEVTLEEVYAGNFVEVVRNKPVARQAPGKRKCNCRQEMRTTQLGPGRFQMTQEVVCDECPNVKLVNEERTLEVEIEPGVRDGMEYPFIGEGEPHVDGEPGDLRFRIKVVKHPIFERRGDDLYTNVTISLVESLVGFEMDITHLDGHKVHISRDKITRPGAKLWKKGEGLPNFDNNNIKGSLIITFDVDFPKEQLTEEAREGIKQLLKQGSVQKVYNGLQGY
UniProt Q9NZJ0: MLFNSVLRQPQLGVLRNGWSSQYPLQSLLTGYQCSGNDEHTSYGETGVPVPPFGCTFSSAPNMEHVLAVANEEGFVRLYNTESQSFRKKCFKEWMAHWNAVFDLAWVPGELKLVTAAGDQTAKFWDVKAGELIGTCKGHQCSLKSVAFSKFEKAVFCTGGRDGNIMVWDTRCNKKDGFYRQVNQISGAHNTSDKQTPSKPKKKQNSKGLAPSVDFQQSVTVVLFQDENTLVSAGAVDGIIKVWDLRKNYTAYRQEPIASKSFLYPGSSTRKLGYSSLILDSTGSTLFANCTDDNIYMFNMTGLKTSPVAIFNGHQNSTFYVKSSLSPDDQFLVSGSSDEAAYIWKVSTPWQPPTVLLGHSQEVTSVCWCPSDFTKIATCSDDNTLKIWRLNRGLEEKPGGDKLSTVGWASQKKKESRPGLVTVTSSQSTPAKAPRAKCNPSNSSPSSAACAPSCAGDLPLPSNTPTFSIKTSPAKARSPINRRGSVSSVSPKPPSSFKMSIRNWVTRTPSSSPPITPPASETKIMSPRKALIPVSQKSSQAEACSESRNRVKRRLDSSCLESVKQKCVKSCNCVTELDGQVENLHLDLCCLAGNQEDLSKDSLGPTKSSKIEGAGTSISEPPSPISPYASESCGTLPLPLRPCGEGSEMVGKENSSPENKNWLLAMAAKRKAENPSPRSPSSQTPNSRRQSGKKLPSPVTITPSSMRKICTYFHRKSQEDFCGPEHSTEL
UniProt Q14919: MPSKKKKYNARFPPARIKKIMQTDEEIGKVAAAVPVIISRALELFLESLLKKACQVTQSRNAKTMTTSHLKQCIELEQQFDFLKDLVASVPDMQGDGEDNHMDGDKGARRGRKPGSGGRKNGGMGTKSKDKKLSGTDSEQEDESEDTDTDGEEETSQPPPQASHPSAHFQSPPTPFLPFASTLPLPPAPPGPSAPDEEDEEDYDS
UniProt Q8IXB1: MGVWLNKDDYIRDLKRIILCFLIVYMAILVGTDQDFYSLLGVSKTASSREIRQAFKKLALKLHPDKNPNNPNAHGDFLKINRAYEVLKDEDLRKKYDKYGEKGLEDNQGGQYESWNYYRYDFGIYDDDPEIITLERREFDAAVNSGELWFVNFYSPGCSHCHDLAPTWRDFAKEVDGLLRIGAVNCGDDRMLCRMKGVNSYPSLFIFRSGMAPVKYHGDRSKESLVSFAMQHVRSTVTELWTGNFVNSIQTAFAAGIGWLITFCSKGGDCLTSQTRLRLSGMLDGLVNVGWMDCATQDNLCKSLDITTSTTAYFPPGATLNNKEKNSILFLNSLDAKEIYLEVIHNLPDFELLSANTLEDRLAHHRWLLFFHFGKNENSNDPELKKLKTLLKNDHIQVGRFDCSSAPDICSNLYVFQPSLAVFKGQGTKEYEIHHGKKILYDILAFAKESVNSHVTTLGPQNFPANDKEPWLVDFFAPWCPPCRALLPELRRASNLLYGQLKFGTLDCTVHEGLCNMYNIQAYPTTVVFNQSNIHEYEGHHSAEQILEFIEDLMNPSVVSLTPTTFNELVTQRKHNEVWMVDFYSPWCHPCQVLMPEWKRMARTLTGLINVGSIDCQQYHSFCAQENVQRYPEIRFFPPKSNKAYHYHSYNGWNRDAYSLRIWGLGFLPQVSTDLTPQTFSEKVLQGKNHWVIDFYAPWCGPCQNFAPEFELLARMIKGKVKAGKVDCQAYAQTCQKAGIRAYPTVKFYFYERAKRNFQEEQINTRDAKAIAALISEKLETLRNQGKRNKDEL
UniProt Q7L8W6: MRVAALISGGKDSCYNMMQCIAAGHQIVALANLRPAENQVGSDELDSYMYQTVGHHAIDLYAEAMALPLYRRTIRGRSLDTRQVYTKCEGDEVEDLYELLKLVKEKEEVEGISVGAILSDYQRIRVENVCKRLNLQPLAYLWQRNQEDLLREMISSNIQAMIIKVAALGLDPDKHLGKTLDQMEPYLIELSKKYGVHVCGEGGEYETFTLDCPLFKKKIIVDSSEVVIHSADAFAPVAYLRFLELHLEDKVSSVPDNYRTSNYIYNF
UniProt Q9BZG8: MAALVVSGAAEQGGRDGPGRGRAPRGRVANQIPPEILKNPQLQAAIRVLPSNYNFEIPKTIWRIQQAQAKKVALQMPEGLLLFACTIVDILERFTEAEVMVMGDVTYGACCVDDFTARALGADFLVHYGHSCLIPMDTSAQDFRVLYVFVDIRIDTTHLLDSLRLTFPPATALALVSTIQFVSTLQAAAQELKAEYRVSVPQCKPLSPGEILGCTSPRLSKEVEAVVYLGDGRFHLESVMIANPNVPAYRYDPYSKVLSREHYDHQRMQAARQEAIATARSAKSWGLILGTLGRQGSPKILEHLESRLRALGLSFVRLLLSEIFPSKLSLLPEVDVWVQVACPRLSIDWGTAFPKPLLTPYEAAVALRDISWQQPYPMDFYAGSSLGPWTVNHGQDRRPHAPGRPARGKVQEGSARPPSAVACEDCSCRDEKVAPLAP
UniProt P30084: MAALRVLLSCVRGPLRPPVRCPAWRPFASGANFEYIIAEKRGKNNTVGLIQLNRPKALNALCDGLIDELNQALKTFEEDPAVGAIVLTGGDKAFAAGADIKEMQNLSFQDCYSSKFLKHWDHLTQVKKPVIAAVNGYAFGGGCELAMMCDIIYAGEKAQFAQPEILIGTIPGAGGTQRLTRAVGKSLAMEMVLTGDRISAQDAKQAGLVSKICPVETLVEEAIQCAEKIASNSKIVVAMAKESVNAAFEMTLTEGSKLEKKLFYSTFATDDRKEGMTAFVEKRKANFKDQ

compound: CS(=O)(=O)c1ccc(-c2cnc(N)c(C(=O)Nc3ccccc3)n2)cc1; assay: log2 fold change, soluble protein after heating vs DMSO (PISA); higher = thermal stabilisation; K562 cells, 10 uM, 30 min; active = over 0.2 and 3.5 SD of the protein, either way, in both replicates (recomputed)
Procedure, shortened: (§1)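 For each measurement, 10 μM compound was applied for 30 min to K562 cells at 2×10^6 cells/mL. Aliquots were heated for 3 min across 48°C-58°C, pooled, and extracted in PBS with 0.5% NP-40 at 4°C; the supernatant after 21,000xg for 90 min was soluble protein. This was quantified by TMTpro 16plex LC-MS/MS with channel sums equalised, and thermal stability was reported relative to control samples from duplicates, on a log2 fold-change scale.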

Target	log2 fold change
DNAJC9 (UniProt Q8WXX5)	inactive: 0.026
ECI1 (UniProt P42126)	inactive: 0.002
ECE1 (UniProt P42892)	inactive: -0.027
DNAJB4 (UniProt Q9UDY4)	inactive: 0.031
DNAJC17 (UniProt Q9NVM6)	inactive: 0.011
DPH2 (UniProt Q9BQC3)	inactive: -0.089
EDEM3 (UniProt Q9BZQ6)	inactive: 0.025
DSTN (UniProt P60981)	inactive: 0.05
DNAJC3 (UniProt Q13217)	inactive: 0.052
DOCK11 (UniProt Q5JSL3)	inactive: 0.028
DSG2 (UniProt Q14126)	inactive: 0.039
EDF1 (UniProt O60869)	inactive: -0.024
DNAJC11 (UniProt Q9NVH1)	inactive: 0.022
DPH7 (UniProt Q9BTV6)	inactive: 0.002
DNAJA3 (UniProt Q96EY1)	inactive: -0.003
DUSP23 (UniProt Q9BVJ7)	inactive: 0.02
DST (UniProt Q03001)	inactive: 0.12

Target	log2 fold change
DR1 (UniProt Q01658)	inactive: 0.025
EBAG9 isoform 2 (UniProt O00559)	inactive: 0.079
DNAJC8 (UniProt O75937)	inactive: -0.011
DNAJB11 (UniProt Q9UBS4)	inactive: 0.009
DUT (UniProt P33316)	inactive: 0.011
DTL (UniProt Q9NZJ0)	inactive: 0
DRAP1 isoform 2 (UniProt Q14919)	inactive: 0.021
DNAJC12 (UniProt Q9UKB3)	inactive: 0.029
DNAJC10 (UniProt Q8IXB1)	inactive: 0.017
DPH6 (UniProt Q7L8W6)	inactive: -0.004
DPH1 (UniProt Q9BZG8)	inactive: -0.052
DPP7 (UniProt Q9UHL4)	inactive: -0.021
ECHS1 (UniProt P30084)	inactive: 0.023
EDARADD (UniProt Q8WWZ3)	inactive: 0.04
DTD1 (UniProt Q8TEA8)	inactive: -0.062
DSC2 (UniProt Q02487)	inactive: 0.175

compound: C[C@@H](Oc1cc(-c2cnn(C3CCNCC3)c2)cnc1N)c1c(Cl)ccc(F)c1Cl [crizotinib]; assay: as above
Procedure, shortened: as §1

Target	log2 fold change
DNAJC9 (UniProt Q8WXX5)	inactive: 0.002
ECI1 (UniProt P42126)	inactive: 0.072
ECE1 (UniProt P42892)	inactive: -0.086
DNAJB4 (UniProt Q9UDY4)	inactive: 0.006
DNAJC17 (UniProt Q9NVM6)	inactive: 0.091
DPH2 (UniProt Q9BQC3)	inactive: -0.031
EDEM3 (UniProt Q9BZQ6)	inactive: 0.027
DSTN (UniProt P60981)	inactive: 0.041
DNAJC3 (UniProt Q13217)	inactive: 0.078
DOCK11 (UniProt Q5JSL3)	inactive: -0.024
DSG2 (UniProt Q14126)	inactive: -0.046
EDF1 (UniProt O60869)	inactive: 0.011
DNAJC11 (UniProt Q9NVH1)	inactive: 0.014
DPH7 (UniProt Q9BTV6)	inactive: -0.016
DNAJA3 (UniProt Q96EY1)	inactive: 0.04
DUSP23 (UniProt Q9BVJ7)	inactive: 0.08
DST (UniProt Q03001)	inactive: -0.029

Target	log2 fold change
DR1 (UniProt Q01658)	inactive: 0.089
EBAG9 isoform 2 (UniProt O00559)	inactive: 0.022
DNAJC8 (UniProt O75937)	inactive: 0.039
DNAJB11 (UniProt Q9UBS4)	inactive: 0.029
DUT (UniProt P33316)	inactive: -0.032
DTL (UniProt Q9NZJ0)	inactive: 0.066
DRAP1 isoform 2 (UniProt Q14919)	inactive: 0.048
DNAJC12 (UniProt Q9UKB3)	inactive: 0.049
DNAJC10 (UniProt Q8IXB1)	inactive: 0.025
DPH6 (UniProt Q7L8W6)	inactive: -0.137
DPH1 (UniProt Q9BZG8)	inactive: -0.056
DPP7 (UniProt Q9UHL4)	inactive: -0.029
ECHS1 (UniProt P30084)	inactive: 0.019
EDARADD (UniProt Q8WWZ3)	inactive: 0.037
DTD1 (UniProt Q8TEA8)	inactive: 0.046
DSC2 (UniProt Q02487)	inactive: 0.032

compound: C[C@@H]1COCCN1C2=NC(=NC(=C2)C3(CC3)S(=O)(=O)C)C4=C5C=CNC5=CC=C4; assay: as above
Procedure, shortened: as §1

Target	log2 fold change
DNAJC9 (UniProt Q8WXX5)	inactive: 0.038
ECI1 (UniProt P42126)	inactive: 0.156
ECE1 (UniProt P42892)	inactive: -0.165
DNAJB4 (UniProt Q9UDY4)	inactive: 0.049
DNAJC17 (UniProt Q9NVM6)	inactive: 0.026
DPH2 (UniProt Q9BQC3)	inactive: 0.023
EDEM3 (UniProt Q9BZQ6)	inactive: -0.067
DSTN (UniProt P60981)	inactive: 0.029
DNAJC3 (UniProt Q13217)	inactive: 0.037
DOCK11 (UniProt Q5JSL3)	inactive: 0.035
DSG2 (UniProt Q14126)	inactive: -0.019
EDF1 (UniProt O60869)	inactive: -0.058
DNAJC11 (UniProt Q9NVH1)	inactive: 0.048
DPH7 (UniProt Q9BTV6)	inactive: 0.052
DNAJA3 (UniProt Q96EY1)	inactive: -0.048
DUSP23 (UniProt Q9BVJ7)	inactive: 0.091
DST (UniProt Q03001)	inactive: 0.075

Target	log2 fold change
DR1 (UniProt Q01658)	inactive: 0.051
EBAG9 isoform 2 (UniProt O00559)	inactive: -0.044
DNAJC8 (UniProt O75937)	inactive: 0.037
DNAJB11 (UniProt Q9UBS4)	inactive: -0.014
DUT (UniProt P33316)	inactive: 0.117
DTL (UniProt Q9NZJ0)	inactive: 0.005
DRAP1 isoform 2 (UniProt Q14919)	inactive: 0.04
DNAJC12 (UniProt Q9UKB3)	inactive: 0.043
DNAJC10 (UniProt Q8IXB1)	inactive: -0.138
DPH6 (UniProt Q7L8W6)	inactive: 0.056
DPH1 (UniProt Q9BZG8)	inactive: -0.072
DPP7 (UniProt Q9UHL4)	inactive: -0.002
ECHS1 (UniProt P30084)	inactive: 0.061
EDARADD (UniProt Q8WWZ3)	inactive: 0.059
DTD1 (UniProt Q8TEA8)	inactive: 0.021
DSC2 (UniProt Q02487)	inactive: 0.024
